Reference: PubChem BioAssay AID248 (DTP/NCI, 2004)
The list is a part of this screen's results and no random one: it is rich in T/C values a quarter to a half above the control, in often repeated tests (any T/C) and in doses without a T/C. Further doses and runs are listed elsewhere. T/C: endpoint of the treated group in % of that of the vehicle group. Some doses have a count of surviving animals in place of a T/C: the source files T/C as zero there, which appears to mark a toxic dose or a test without result, not a measured value. Some doses without a T/C left all or most animals alive at the check, yet need not have been tolerated: survival well below the control is almost never listed, so the zero probably covers shortened survival too. Survivors were counted at the toxicity check, usually on the fifth day, unless a day is given; later deaths do not show. Schedules are NCI's codes, read here as Q, the interval in days (D) or hours (H), X, the number of doses. Some schedule codes hold Z or #, which are not explained here. Where survival is the endpoint, the PubChem record calls one and a half times the control and up active, and a quarter to a half above the control has no call in these data; cut-offs in other NCI protocols can differ. Some doses were run more than once; their values stand side by side, smallest first.

Test system: L1210 leukemia ip in BDF1 mice, survival T/C
Test: NCI In Vivo Anticancer Drug Screen. Data for tumor model L1210 Leukemia (intraperitoneal) in B6D2F1 (BDF1) mice
Conditions: T/C endpoint: mean survival time, higher T/C = longer survival
[1] = dose: 100.0 mg/kg/injection, schedule: Q01DX009 (ip), vehicle: saline
[2] = dose: 100.0 mg/kg/injection, schedule: Q04DX003 (ip), vehicle: saline
[3] = dose: 200.0 mg/kg/injection, schedule: Q04DX003 (ip), vehicle: saline
[4] = dose: 400.0 mg/kg/injection, schedule: Q04DX003 (ip), vehicle: saline
[5] = dose: 400.0 mg/kg/injection, schedule: Q01DX001 (ip), vehicle: saline
[6] = dose: 400.0 mg/kg/injection, schedule: Q01DX009 (ip), vehicle: Klucel (hydroxypropylcellulose) (HPC)
[7] = dose: 25.0 mg/kg/injection, schedule: Q04DX003 (ip), vehicle: saline
[8] = dose: 200.0 mg/kg/injection, schedule: Q01DX001 (ip), vehicle: saline
[9] = dose: 200.0 mg/kg/injection, schedule: Q01DX009 (ip), vehicle: saline with Tween-80
[10] = dose: 400.0 mg/kg/injection, schedule: Q04DX003 (ip), vehicle: saline with Tween-80
[11] = dose: 400.0 mg/kg/injection, schedule: Q04DX003 (ip), vehicle: Klucel (hydroxypropylcellulose) (HPC)
[12] = dose: 400.0 mg/kg/injection, schedule: Q01DX009 (ip), vehicle: saline with Tween-80
[13] = dose: 400.0 mg/kg/injection, schedule: Q04DX002 (ip), vehicle: saline with Tween-80

NC1(c2ccccc2)CCCCC1
survivor count [1]: 0 of 6 | survivor count [2]: 3 of 4 | survivor count (dose: 200.0 mg/kg/injection, schedule: Q01DX009 (ip), vehicle: saline): 0 of 6 | survivor count [3]: 0 of 4 | survivor count (dose: 400.0 mg/kg/injection, schedule: Q01DX009 (ip), vehicle: saline): 0 of 6 | survivor count [4]: 0 of 4

C1=CC2CC1CC2CNCCN1CC1 (stereo not drawn)
survivor count (dose: 40.0 mg/kg/injection, schedule: Q04DX003 (ip), vehicle: saline): 0 of 6 | survivor count [2]: 0 of 6 | survivor count [3]: 0 of 6 | survivor count [4]: 0 of 6

O=S(=O)(O)c1ccccc1/C=N\N=C\c1ccccc1S(=O)(=O)O
T/C [4]: 130 % of control

[Cl][Hg][Cl].c1ccc(N=P(c2ccccc2)(c2ccccc2)c2ccccc2)cc1
survivor count (dose: 37.5 mg/kg/injection, schedule: Q01DX001 (ip), vehicle: other): 3 of 6 | survivor count (dose: 75.0 mg/kg/injection, schedule: Q01DX001 (ip), vehicle: other): 0 of 6 | survivor count (dose: 150.0 mg/kg/injection, schedule: Q01DX001 (ip), vehicle: other): 0 of 6 | survivor count (dose: 300.0 mg/kg/injection, schedule: Q01DX001 (ip), vehicle: other): 0 of 6

CC12COC(=O)CC1CCC1C2CCC2(C)C1CCC2(C)O (stereo not drawn)
survivor count [5]: 3 of 6

Cn1c(=O)c2c(nc(OC3CCCCCC3)n2C)n(C)c1=O
survivor count (dose: 400.0 mg/kg/injection, schedule: Q01DX001 (ip), vehicle: other): 2 of 4

Nc1ccc2c(ccc3ccc4ccccc4c32)c1
survivor count (dose: 150.0 mg/kg/injection, schedule: Q01DX001 (ip), vehicle: carboxymethylcellulose (CMC)): 2 of 6 | survivor count (dose: 300.0 mg/kg/injection, schedule: Q01DX001 (ip), vehicle: carboxymethylcellulose (CMC)): 0 of 6

Cc1ccc(CNc2ccc(Cl)cc2)cc1
survivor count [6]: 2 of 6

COc1ccc(N=O)c(O)c1
survivor count (dose: 200.0 mg/kg/injection, schedule: Q01DX009 (ip), vehicle: Klucel (hydroxypropylcellulose) (HPC)): 0 of 6

CO/N=C(/C)C1(O)Cc2c(O)c3c(c(O)c2C(OC2CC(N)C(O)C(C)O2)C1)C(=O)c1c(OC)cccc1C3=O (stereo not drawn)
survivor count (dose: 16.0 mg/kg/injection, schedule: Q04DX003 (ip), vehicle: water): 5 of 10 | survivor count (dose: 25.0 mg/kg/injection, schedule: Q01DX009 (ip), vehicle: saline with Tween-80): 8 of 10 | survivor count [7]: 0 of 10 | survivor count (dose: 50.0 mg/kg/injection, schedule: Q01DX009 (ip), vehicle: saline with Tween-80): 0 of 10 | survivor count (dose: 50.0 mg/kg/injection, schedule: Q04DX003 (ip), vehicle: saline): 0 of 10 | survivor count [2]: 0 of 10

COc1cccc(/C=N\NC(=O)CCCC(=O)N/N=C/c2cccc(OC)c2)c1
survivor count [8]: 4 of 4

COC(=O)c1ccccc1N(C)C(=O)Nc1ccc(F)cc1
survivor count (dose: 400.0 mg/kg/injection, schedule: Q04DX002 (ip), vehicle: carboxymethylcellulose (CMC)): 3 of 3

O=C(Nc1ccccc1F)c1ccc(C(=O)Nc2ccccc2F)cc1
survivor count (dose: 100.0 mg/kg/injection, schedule: Q01DX009 (ip), vehicle: saline with Tween-80): 6 of 6 | survivor count [9]: 6 of 6 | survivor count [10]: 5 of 6

COC1OC(OC)[CH]([Hg][Cl])C1OC (stereo not drawn)
survivor count [7]: 3 of 6

O=C(O)c1cc([N+](=O)[O-])ccc1Nc1ccccc1
survivor count (dose: 100.0 mg/kg/injection, schedule: Q04DX003 (ip), vehicle: saline with Tween-80): 6 of 6 | survivor count [10]: 0 of 6

CCOC(=O)/C(C#N)=C\C=C\c1ccccc1
survivor count [6]: 3 of 6

Cc1nc(Cl)c(C#N)c(C(F)(F)F)c1N
survivor count (dose: 200.0 mg/kg/injection, schedule: Q01DX Z (ip), vehicle: carboxymethylcellulose (CMC)): 2 of 6

COc1ccccc1NC(=S)Nc1ccccc1OC
survivor count [6]: 3 of 6

CCC(O)C[As](=O)(O)c1cccc(Cl)c1 (stereo not drawn)
survivor count (dose: 12.5 mg/kg/injection, schedule: Q01DX001 (ip), vehicle: saline with Tween-80): 2 of 6 | survivor count (dose: 12.5 mg/kg/injection, schedule: Q01DX001 (ip), vehicle: saline): 4 of 6 | survivor count (dose: 25.0 mg/kg/injection, schedule: Q01DX001 (ip), vehicle: saline with Tween-80): 0 of 6 | survivor count (dose: 100.0 mg/kg/injection, schedule: Q01DX001 (ip), vehicle: saline with Tween-80): 0 of 6 | survivor count (dose: 200.0 mg/kg/injection, schedule: Q01DX001 (ip), vehicle: saline with Tween-80): 0 of 6 | survivor count (dose: 400.0 mg/kg/injection, schedule: Q01DX001 (ip), vehicle: saline with Tween-80): 0 of 6

O=[N+]([O-])c1ccc(S(=O)CCl)cc1 (stereo not drawn)
survivor count [11]: 2 of 6

O=C(NC(=O)C(Cl)Cl)Nc1cccc2c1-c1ccccc1C2
survivor count [6]: 3 of 6

Cc1ccc(Cl)cc1NS(=O)(=O)c1cccc([N+](=O)[O-])c1
survivor count [12]: 6 of 6

C1CN2CCC1CC2
survivor count (dose: 20.0 mg/kg/injection, schedule: Q01DX001 (ip), vehicle: saline): 2 of 6 | survivor count (dose: 40.0 mg/kg/injection, schedule: Q01DX001 (ip), vehicle: saline): 0 of 6 | survivor count (dose: 80.0 mg/kg/injection, schedule: Q01DX001 (ip), vehicle: saline): 0 of 6 | survivor count (dose: 100.0 mg/kg/injection, schedule: Q01DX001 (ip), vehicle: saline): 0 of 6 | survivor count [8]: 0 of 6 | survivor count [9]: 1 of 6 | survivor count [5]: 0 of 6 | survivor count [10]: 0 of 6

Nc1nc(=S)c2[nH]c(N=Nc3ccc(S(=O)(=O)Nc4ccccn4)cc3)nc2[nH]1
T/C (dose: 12.5 mg/kg/injection, schedule: Q01DX009 (ip), vehicle: Klucel (hydroxypropylcellulose) (HPC)): 138, 143, 145 % of control | T/C (dose: 25.0 mg/kg/injection, schedule: Q01DX009 (ip), vehicle: Klucel (hydroxypropylcellulose) (HPC)): 134 and 147 % of control | T/C (dose: 100.0 mg/kg/injection, schedule: Q04DX003 (ip), vehicle: Klucel (hydroxypropylcellulose) (HPC)): 143 % of control | T/C (dose: 200.0 mg/kg/injection, schedule: Q04DX003 (ip), vehicle: Klucel (hydroxypropylcellulose) (HPC)): 125 and 126 % of control | survivor count [11]: 4 of 6

C1COC(N2CC3CCC(CC3)C2)=N1
survivor count (dose: 300.0 mg/kg/injection, schedule: Q01DX001 (ip), vehicle: saline): 0 of 6

CN(C)C1CC1c1ccccc1 (stereo not drawn)
survivor count [1]: 2 of 6 | survivor count [3]: 2 of 4 | survivor count [4]: 0 of 4

SCCCCN1CCCCC1
survivor count (dose: 50.0 mg/kg/injection, schedule: Q01DX001 (ip), vehicle: carboxymethylcellulose (CMC)): 0 of 6 | survivor count (dose: 100.0 mg/kg/injection, schedule: Q01DX001 (ip), vehicle: carboxymethylcellulose (CMC)): 0 of 6 | survivor count (dose: 200.0 mg/kg/injection, schedule: Q01DX001 (ip), vehicle: carboxymethylcellulose (CMC)): 0 of 6 | survivor count (dose: 400.0 mg/kg/injection, schedule: Q01DX001 (ip), vehicle: carboxymethylcellulose (CMC)): 0 of 6

CC1(c2ccco2)C(=O)NC(=O)N1C(=O)CCl (stereo not drawn)
survivor count [12]: 0 of 6

COc1ccc(CCNC(=S)NN)cc1OC
survivor count (dose: 100.0 mg/kg/injection, schedule: Q04DX002 (ip), vehicle: saline with Tween-80): 3 of 3 | survivor count [13]: 0 of 3

CCOc1cc2ccc3c4cc(OC)c(OC)cc4c[n+](C)c3c2cc1OCC
survivor count (dose: 200.0 mg/kg/injection, schedule: Q04DX002 (ip), vehicle: saline with Tween-80): 2 of 3 | survivor count [13]: 1 of 3
